According to PubChem BioAssay AID540275 (National Center for Advancing Translational Sciences (NCATS), 2011):
About 620 (0.19%) of roughly 320,000 compounds were called active. The inconclusive results got no clear call from the source; some entries with a clear call stand among them for comparison. No stated cut-off is given here; in the data, active means activation above about 80%; inconclusive means between about 30% and that limit; inactive means weaker than that.

The chains behind the UniProt entries cited, without tags or fusion partners.
UniProt Q8NER1, whole entry, looked up: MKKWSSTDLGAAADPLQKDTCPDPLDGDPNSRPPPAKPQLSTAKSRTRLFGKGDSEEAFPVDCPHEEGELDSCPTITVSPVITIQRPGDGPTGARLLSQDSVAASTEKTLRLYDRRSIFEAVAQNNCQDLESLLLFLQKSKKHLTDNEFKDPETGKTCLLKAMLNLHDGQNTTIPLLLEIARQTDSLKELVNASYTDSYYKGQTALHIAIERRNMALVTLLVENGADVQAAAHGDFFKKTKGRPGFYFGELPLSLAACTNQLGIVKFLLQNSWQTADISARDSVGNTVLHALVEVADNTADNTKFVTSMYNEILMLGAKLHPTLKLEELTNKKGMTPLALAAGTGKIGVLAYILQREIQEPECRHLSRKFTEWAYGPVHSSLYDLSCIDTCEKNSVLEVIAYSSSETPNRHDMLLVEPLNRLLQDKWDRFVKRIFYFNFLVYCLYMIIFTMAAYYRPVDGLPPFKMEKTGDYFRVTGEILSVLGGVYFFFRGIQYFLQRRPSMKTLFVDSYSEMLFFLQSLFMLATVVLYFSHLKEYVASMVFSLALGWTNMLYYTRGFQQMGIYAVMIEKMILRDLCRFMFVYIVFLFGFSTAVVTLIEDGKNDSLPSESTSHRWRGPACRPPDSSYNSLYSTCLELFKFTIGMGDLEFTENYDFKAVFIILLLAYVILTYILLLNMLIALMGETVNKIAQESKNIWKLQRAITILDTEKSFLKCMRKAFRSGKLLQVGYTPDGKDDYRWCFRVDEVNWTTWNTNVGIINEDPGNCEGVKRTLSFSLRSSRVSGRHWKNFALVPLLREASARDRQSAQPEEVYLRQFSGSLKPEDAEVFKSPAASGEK

Molecular target: Transient receptor potential cation channel subfamily V member 1 (Homo sapiens) (UniProt Q8NER1)
Assay: HTS Assay for Compounds that Act as Agonists of the Vanilloid Receptor 1; further: 0% is about no effect
Conditions: TRPV1-expressing cells, Fluo-8 calcium influx, agonist mode; at 8.33 µM, hits give high values
Outline: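 TRPV1-expressing cells were cultured overnight at 35.5C and loaded with Fluo-8 calcium dye for 40 to 90 min at room temperature. After a 10 s baseline, compound was added and calcium influx was read kinetically for 3 min (ex 480/em 520 nm).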

Structure (SMILES) | activation
COC(=O)c1ccc(Sc2ccc(F)cc2)c(N)c1 | inconclusive: 44.9%
CC(NC(=O)COC(=O)C1CC2CCCC(C1)C2=O)c1ccccc1 (stereo not given) | inactive: 5.54%
Cc1cccc(NC(=S)Nc2ccc(Oc3ccccc3)cc2)n1 | inactive: 1.67%
CCCCNc1cc(C)nc(NCc2ccccc2)n1 | inactive: 2.04%
CCOc1ccc(C2c3c(oc4ccccc4c3=O)C(=O)N2c2ccc(C)cn2)cc1OC (stereo not given) | inconclusive: 32.1%
COc1cccc(CN(C)C(=S)Nc2ccc(C)c(C)c2)c1 | inactive: 8.6%
O=C(Nc1ccc2c(c1)OCO2)c1cnn2c1NC(c1ccco1)CC2C(F)(F)F (stereo not given) | inconclusive: 36.1%
O=C(Nc1ccccc1)c1ccc(CN2CCc3ccccc3C2)cc1 | inconclusive: 60.4%
Cc1ccc(Cl)cc1NC(=O)C1CCCN1S(=O)(=O)c1ccc(-c2ccc(=O)[nH]n2)s1 (stereo not given) | inconclusive: 65.4%
Cc1ccc(C(=O)NNc2c3ccccc3nc3ccccc23)cc1 | inconclusive: 44.4%
Cc1ccc(S(=O)(=O)N(CC(=O)NCCC2=CCCCC2)Cc2ccccc2)cc1 | inconclusive: 34.9%
CC(C)(C)OC(=O)N[C@H](C(=O)OC(C)(C)C)c1ccc2c(c1)OCO2 | inconclusive: 36.6%
O=C(Nc1ccc(O)cc1)c1ccc(C(=O)c2ccccc2)o1 | inconclusive: 40.2%
CN(CCC#N)C(=S)Nc1ccc(Oc2ccccc2)cc1 | inconclusive: 42.1%
CC(C)CN1C2CCCC1CC(NC(=O)c1ccc([N+](=O)[O-])cc1)C2 (stereo not given) | inactive: -1.02%
O=C(Nc1ccc(C(F)(F)F)cc1)c1csc(-c2ccncc2)n1 | inconclusive: 45%
Cc1ccc(-c2nnc(-c3ccccc3Br)o2)cc1 | inconclusive: 35.3%
Cc1cs/c(=N\N=C2CCCCC2)n1Cc1ccco1 | inactive: 3.24%
CC(C)c1ccc(NC(=O)Cn2c(=O)oc3ccccc32)cc1 | inconclusive: 41.6%
Cc1cc(C)nc(NC(=O)c2cc(-c3ccc4c(c3)OCO4)nc3ccccc23)c1 | inconclusive: 55.7%
COC(=O)C1=C(C)N(Cc2ccccc2)C(=NCC(C)C)N[C@H]1c1ccc(Br)cc1 | inconclusive: 31.3%
COc1cc(/C=N/NC(=O)CCc2ccccc2)ccc1O | inactive: -0.981%
CN(C)c1oc(-c2ccccc2Cl)nc1P(=O)(c1ccccc1)c1ccccc1 | inconclusive: 35.7%

Structure (SMILES) | activation
Cc1ccccc1-c1nnn(Cc2cccc(S(=O)(=O)N3CCOCC3)c2)n1 | inactive: 2.72%
CCOC(=O)N1CCN(C(=O)c2ccc3c(c2)N(Cc2ccc(C)cc2)CCS3)CC1 | inconclusive: 33.5%
c1ccc2c(CSCc3nc4ccccc4[nH]3)cccc2c1 | inconclusive: 44.6%
CCc1nc(N2CCCC(C)C2)c2oc3ccccc3c2n1 (stereo not given) | inconclusive: 33.3%
CCCNC(=O)C1CC(c2ccc(C(F)(F)F)cc2)=NO1 (stereo not given) | inconclusive: 32.7%
O=C(CCS(=O)(=O)c1cccc2nonc12)Nc1ccc(Br)cc1 | inconclusive: 31%
O=C(Nc1ccc(Cc2ccncc2)cc1)c1ccc(S(=O)(=O)N2CCCC2)cc1 | inconclusive: 43.9%
Cc1ccc(C(=O)NCCSCc2ccccc2)cc1[N+](=O)[O-] | inconclusive: 51.1%
Cc1ccc(C)c(OCC(=O)NC2CCCCCC2)c1 | inconclusive: 36.8%
O=C(Cc1ccccc1)c1ccc(Cl)cc1 | inconclusive: 33.4%
Cc1cc(N/C(=N/S(=O)(=O)c2cc(F)ccc2F)c2ccccc2)n(-c2ccccc2)n1 | inconclusive: 38.8%
CC(C)CC(=O)Nc1c(C(=O)N2CCN(Cc3ccccc3)CC2)oc2ccccc12 | inconclusive: 42.6%
COc1cccc(OCC(=O)Nc2ccccc2-c2ccccc2)c1 | inconclusive: 34.4%
CCCCN(C(=O)c1oc2ccc(OCC)cc2c1C)c1c(N)n(CCCC)c(=O)[nH]c1=O | inactive: -1.71%
Cc1ccc(CNC(=O)Cn2cccc2C(=O)c2ccccc2C)cc1 | inconclusive: 32.2%
Cc1ccc(/C=C/C(=O)c2ccc(N3CCOCC3)cc2)s1 | inconclusive: 31.2%
O=C(COC(=O)c1ccccc1Nc1cccc(C(F)(F)F)c1)NCc1ccco1 | inconclusive: 36%
CCC1(C)Cc2ccccc2-c2nc3n(c(=O)c21)CCCCC3 (stereo not given) | inconclusive: 43.4%
Cc1ccc(NC(=O)c2ccc(OCc3c(C)noc3C)cc2)nc1 | inconclusive: 50.7%
Cc1ccccc1-c1nc(P(=O)(c2ccccc2)c2ccccc2)c(N2CCOCC2)o1 | inconclusive: 77.9%
Cc1nc(C)c(Oc2cccc(C(F)(F)F)c2)c(=O)[nH]1 | inconclusive: 67.9%
CCN(C(=O)C1CCCN(c2ncnc3c2nc2n3CCCCC2)C1)c1cccc(Cl)c1 (stereo not given) | inconclusive: 71.4%
CC(=O)Nc1ccc(C(=O)Nc2cccc(S(=O)(=O)N(C)c3ccccc3)c2)cc1 | inactive: 1.26%

Quoted at random: 5 entries already listed
Structure (SMILES) | activation
CC(=O)Nc1ccc(C(=O)Nc2cccc(S(=O)(=O)N(C)c3ccccc3)c2)cc1 | inactive: 1.26%
CCN(C(=O)C1CCCN(c2ncnc3c2nc2n3CCCCC2)C1)c1cccc(Cl)c1 (stereo not given) | inconclusive: 71.4%
CCCNC(=O)C1CC(c2ccc(C(F)(F)F)cc2)=NO1 (stereo not given) | inconclusive: 32.7%
Cc1ccccc1-c1nnn(Cc2cccc(S(=O)(=O)N3CCOCC3)c2)n1 | inactive: 2.72%
Cc1ccc(C)c(OCC(=O)NC2CCCCCC2)c1 | inconclusive: 36.8%

Additional structures.

Structure (SMILES) | activation
O=C(Nc1ccc(C(F)(F)F)cc1)C(Cc1ccccc1)n1cccc1 (stereo not given) | inconclusive: 34.9%
COc1ccc(OCC(=O)Nc2ccc(-c3nc4cc(C)c(C)cc4o3)cc2)cc1 | inactive: 2.55%
COc1cc2c(cc1OC)C(C1(O)CCCCC1)NCC2 (stereo not given) | inactive: -2.76%
Cc1ccc(N(C)S(=O)(=O)c2cccc(C(=O)OCC(=O)N3CCCC(C)C3)c2)cc1 (stereo not given) | inconclusive: 32.9%
O=C(Nc1cccc(F)c1)c1cc(S(=O)(=O)N2CCOCC2)cs1 | inconclusive: 40.9%
COc1ccc(Br)cc1CN(C)CC(=O)NCCc1ccc(S(N)(=O)=O)cc1 | inconclusive: 50%
Cc1cc(=O)oc2cc(OCC(=O)OCC(=O)Nc3ccccc3F)ccc12 | inactive: 0.296%
CN(C)C(CNC(=S)Nc1ccc(Cl)cc1)c1cccnc1 (stereo not given) | inactive: 1.41%
COc1ccccc1NC(=S)N/N=C/c1ccc(O)cc1 | inactive: 1.88%
Cn1c(N)c(-c2ccccc2)c2ccc([N+](=O)[O-])cc2c1=O | inactive: -1.65%
COc1ccccc1N1CCN(C(=O)c2cc(C)oc2C)CC1 | inactive: 3.86%
CC(O)c1c(OCc2ccccc2)ncnc1OCc1ccccc1 (stereo not given) | inconclusive: 36.2%
Cc1cc([N+](=O)[O-])ccc1NC(=O)/C=C/c1cccs1 | inconclusive: 55.5%
Cc1c(C(=O)NC2CC2)oc2ccc(S(=O)(=O)N3CCCCCC3)cc12 | inconclusive: 50.1%
COc1ccc(CC(C#N)(CO)c2nc3ccccc3[nH]2)cc1 (stereo not given) | inconclusive: 47.3%
O=c1[nH]c2ccccc2n1CCCN1CCN(C(c2ccccc2)c2ccccc2)CC1 | inactive: 11.1%
CCCC(=O)Nn1cnc2c(c1=O)C1(CCCC1)Cc1ccccc1-2 | inconclusive: 30.3%
Nc1nc(Cl)nc2c1ncn2[C@@H]1O[C@H](CO)[C@@H](O)[C@H]1O | inactive: -1.51%
COc1ccc(N(C(=O)c2snc(C(N)=O)c2N)C(C(=O)NC2CCCC2)c2ccc(C)o2)c(OC)c1 (stereo not given) | inconclusive: 66.7%
CCCS(=O)(=O)c1nc(S(=O)(=O)c2ccc(C)cc2)c(N2CCCC(C)C2)s1 (stereo not given) | inconclusive: 35.7%
CC(C)(C)c1ccc(NC(=O)COC(=O)CCc2nc3ccccc3c(=O)[nH]2)cc1 | inconclusive: 57.7%
C=CCn1c(-c2ccoc2)n[nH]c1=S | inactive: 2.43%
COc1cccc(NC(=O)N2CCc3ccccc3C2)c1 | inconclusive: 39.4%

Structure (SMILES) | activation
COc1cccc(C2CCCN2Cc2nc(CCC(C)C)no2)c1 (stereo not given) | inconclusive: 33.6%
CCCCNC(=O)c1cccc(S(=O)(=O)N2CC3(C)CC2CC(C)(C)C3)c1 (stereo not given) | inconclusive: 47%
CCCCOc1ccc(NC(=O)C(=O)NCCCn2ccnc2)cc1 | inactive: 2.46%
O=c1oc2ccccc2n1CCCOc1ccccc1 | inconclusive: 33.7%
CCOc1ccc(N(Cc2ccc(OC)cc2)C(=O)c2ccco2)cc1 | inconclusive: 37.1%
Cc1cccc(CSc2ncccc2C(=O)O)c1 | inactive: -0.335%
COc1cccc(C(=O)N/N=C(/c2ccccc2)c2ccccn2)c1 | inconclusive: 77.8%
CCCCCCCCSc1n[nH]c(N)n1 | inconclusive: 51.4%
CC(C)c1ccc(NC2CCCN(C(=O)c3ccnn3C)C2)cc1 (stereo not given) | inconclusive: 53.3%
CC(C)(C)OC(=O)N1CCC(CNC(=O)c2ccc(F)cc2)CC1 | inconclusive: 58.7%
COc1cccc(Nc2nc(-c3sc(NC(=O)CC(C)C)nc3C)cs2)c1 | inactive: -2.31%
Cc1nc2c(ccc3nc(NC(=O)C(c4ccccc4)c4ccccc4)sc32)s1 | inactive: -7.06%
O=S(=O)(c1ccc(Cl)nc1)N1CCc2ccccc21 | inactive: -11.5%
Clc1ccc(-c2nc3ccccc3n2OCc2ccccc2)cc1 | inconclusive: 35.5%
COc1ccc(C)cc1S(=O)(=O)N(CC(=O)NC1CCCC1)c1ccc(F)cc1 | inconclusive: 43.8%
CC(CCc1ccccc1)NC(=S)NC(=O)c1ccco1 (stereo not given) | inconclusive: 30.7%
Cc1sc2nc(SCC(=O)NCc3ccco3)n(CCc3ccccc3)c(=O)c2c1C | inconclusive: 33.8%
COc1ccccc1-c1cc(C(=O)NCc2cccs2)no1 | inconclusive: 31.1%
COc1ccc(C2CC(c3ccccc3)=NN2C(=O)COC(=O)C2CC2)cc1 (stereo not given) | inconclusive: 40.3%
O=[N+]([O-])c1ccc(CNc2cccc(F)c2)s1 | inactive: -1.4%
CCN(CC)CCn1c(=S)[nH]c2cc(C(=O)NCc3ccc(C)cc3)ccc2c1=O | inactive: -1.55%
